Molecules are shown by their SMILES. The list does not hold the whole screen: it is rich in T/C values a quarter to a half above the control, in often repeated tests (any T/C) and in doses without a T/C. Other doses and runs of a compound stand elsewhere. T/C gives the treated animals as a percentage of the vehicle group. Some doses have a count of surviving animals in place of a T/C: the source files T/C as zero there, which appears to mark a toxic dose or a test without result, not a measured value. Some survivor counts are full or nearly so, which does not show that the dose was tolerated: the source hardly ever lists a survival T/C far under the control, and the zero likely stands for such cases as well. Survivors were counted at the toxicity check, usually on the fifth day, unless a day is given; later deaths do not show. Schedule codes are those of the source, taken here to give the interval after Q, in days (D) or hours (H), and the number of doses after X. Some schedules carry Z or #; the key to these is not given. For survival time, this PubChem deposit counts one and a half times the control or more as active, and values a quarter to a half above the control carry no call in these data; other NCI protocols may use other cut-offs. Some entries were tested several times; their values stand side by side, smallest first. Some T/C values are followed by the survivors on the day toxicity was checked, most often the fifth; where none is given, no animal had died by that day.

The record followed here is PubChem BioAssay AID248 (DTP/NCI, 2004).

The assay has as its system L1210 leukemia ip in BDF1 mice, survival T/C. Briefly: NCI In Vivo Anticancer Drug Screen. Data for tumor model L1210 Leukemia (intraperitoneal) in B6D2F1 (BDF1) mice. Particulars: T/C endpoint: mean survival time, higher T/C = longer survival.
The mark [1] stands for this setting: dose: 400.0 mg/kg/injection, schedule: Q04DX003 (ip), vehicle: Klucel (hydroxypropylcellulose) (HPC).
Where [2] appears, read: dose: 400.0 mg/kg/injection, schedule: Q01DX009 (ip), vehicle: Klucel (hydroxypropylcellulose) (HPC).

On to `CNC1=C(N2CC2C)C(=O)C(NC)=C(N2CC2C)C1=O` (stereo not given), for which the T/C runs as follows: (dose: 0.62 mg/kg/injection, schedule: Q01DX009 (ip), vehicle: saline) 126 % of control [5 of 6 alive]; (dose: 2.5 mg/kg/injection, schedule: Q01DX001 (ip), vehicle: saline) 136 % of control; (dose: 2.5 mg/kg/injection, schedule: Q01DX009 (ip), vehicle: saline) 132 % of control; (dose: 5.0 mg/kg/injection, schedule: Q01DX001 (ip), vehicle: saline) 142 % of control; (dose: 5.0 mg/kg/injection, schedule: Q01DX009 (ip), vehicle: saline) 137 % of control; (dose: 5.4 mg/kg/injection, schedule: Q04DX003 (ip), vehicle: saline) 130 % of control. The T/C (dose: 6.25 mg/kg/injection, schedule: Q04DX003 (ip), vehicle: saline) is 148 % of control; the T/C (dose: 8.2 mg/kg/injection, schedule: Q04DX003 (ip), vehicle: saline) is 140 % of control; the T/C (dose: 12.5 mg/kg/injection, schedule: Q04DX003 (ip), vehicle: saline) is 144 % of control. Besides, the survivor count runs as follows: (dose: 20.0 mg/kg/injection, schedule: Q01DX001 (ip), vehicle: saline) 3 of 6; (dose: 25.0 mg/kg/injection, schedule: Q04DX003 (ip), vehicle: saline) 1 of 6; (dose: 50.0 mg/kg/injection, schedule: Q04DX003 (ip), vehicle: saline) 1 of 6; (dose: 100.0 mg/kg/injection, schedule: Q04DX003 (ip), vehicle: saline) 2 of 6.

As for `O=C1C(=C(C(F)(F)Cl)C(F)(F)Cl)C2CCC1C2` (stereo not given), the survivor count runs as follows: (dose: 100.0 mg/kg/injection, schedule: Q01DX009 (ip), vehicle: saline with Tween-80) 3 of 6; (dose: 200.0 mg/kg/injection, schedule: Q01DX001 (ip), vehicle: saline with Tween-80) 1 of 6; (dose: 400.0 mg/kg/injection, schedule: Q01DX001 (ip), vehicle: saline with Tween-80) 0 of 6.

Regarding `CC1(C)CC[N+]1(C)Cc1ccccc1` (stereo not given), the survivor count (dose: 50.0 mg/kg/injection, schedule: Q01DX001 (ip), vehicle: saline) was 0 of 6; the survivor count (dose: 100.0 mg/kg/injection, schedule: Q01DX001 (ip), vehicle: saline) was 0 of 6; the survivor count (dose: 200.0 mg/kg/injection, schedule: Q01DX001 (ip), vehicle: saline) is recorded as 0 of 6; the survivor count (dose: 400.0 mg/kg/injection, schedule: Q01DX001 (ip), vehicle: saline) is on record as 0 of 6.

For `Cc1c(C)c([N+](=O)[O-])c(/C=C/C(=O)O)c(C)c1[N+](=O)[O-]`, the survivor count under setting [1] was 6 of 6.

Take `CN(NC(=O)OCc1ccccc1)C(=O)OCc1ccccc1`: the survivor count under setting [2] is reported as 1 of 6.

In the case of `COC(=O)c1[nH]c(=O)[nH]c(=O)c1F`, the T/C (dose: 2.0 mg/kg/injection, schedule: Q01DX Z (ip), vehicle: methylcellulose (MC)) was 140 % of control; the T/C (dose: 5.0 mg/kg/injection, schedule: Q01DX Z (ip), vehicle: carboxymethylcellulose (CMC)) was 133 % of control; the T/C (dose: 7.0 mg/kg/injection, schedule: Q01DX Z (ip), vehicle: carboxymethylcellulose (CMC)) is 142 % of control; the T/C (dose: 8.0 mg/kg/injection, schedule: Q04DX003 (ip), vehicle: saline with Tween-80) was 125 % of control; the T/C (dose: 12.0 mg/kg/injection, schedule: Q01DX Z (ip), vehicle: methylcellulose (MC)) was 143 % of control; the T/C (dose: 16.0 mg/kg/injection, schedule: Q01DX009 (ip), vehicle: saline with Tween-80) was 143 % of control. Moreover, the T/C is, setting by setting: (dose: 16.0 mg/kg/injection, schedule: Q04DX003 (ip), vehicle: saline with Tween-80) 141 % of control; (dose: 17.0 mg/kg/injection, schedule: Q01DX Z (ip), vehicle: carboxymethylcellulose (CMC)) 149 % of control. For the same compound, the survivor count (dose: 60.0 mg/kg/injection, schedule: Q01DX Z (ip), vehicle: methylcellulose (MC)) is 6 of 6 and the survivor count (dose: 64.0 mg/kg/injection, schedule: Q01DX009 (ip), vehicle: saline with Tween-80) was 6 of 6.

Take `C[CH2][Ge]([CH2]C)([CH2]C)[CH2]CO`: the survivor count is listed as 0 of 3 (dose: 100.0 mg/kg/injection, schedule: Q04DX002 (ip), vehicle: saline with Tween-80); 0 of 3 (dose: 200.0 mg/kg/injection, schedule: Q04DX002 (ip), vehicle: saline with Tween-80); 0 of 3 (dose: 400.0 mg/kg/injection, schedule: Q04DX002 (ip), vehicle: saline with Tween-80).

Regarding `CCCCC1CN=C(c2ccc(NC(=O)c3ccc(C(=O)Nc4ccc(C5=NCC(CCCC)CN5)cc4)c(Cl)c3)cc2)NC1` (stereo not given), the T/C (dose: 11.0 mg/kg/injection, schedule: Q01DX015 (ip), vehicle: methylcellulose (MC)) was 125 % of control and the T/C (dose: 31.0 mg/kg/injection, schedule: Q01DX015 (ip), vehicle: methylcellulose (MC)) was 128 % of control. The survivor count is 3 of 6 (dose: 125.0 mg/kg/injection, schedule: Q01DX015 (ip), vehicle: methylcellulose (MC)) and 1 of 6 (dose: 250.0 mg/kg/injection, schedule: Q01DX015 (ip), vehicle: methylcellulose (MC)).

For the compound `CCC1CCC(NC(=O)N(CCF)N=O)CC1` (stereo not given), the T/C reads like this: (dose: 26.0 mg/kg/injection, schedule: Q01DX001 (ip), vehicle: other) 129 % of control; (dose: 40.0 mg/kg/injection, schedule: Q01DX001 (ip), vehicle: other) 139 % of control. Moreover, the survivor count by setting is: (dose: 187.0 mg/kg/injection, schedule: Q01DX001 (ip), vehicle: other) 3 of 10; (dose: 375.0 mg/kg/injection, schedule: Q01DX001 (ip), vehicle: other) 0 of 10; (dose: 500.0 mg/kg/injection, schedule: Q01DX001 (ip), vehicle: other) 0 of 10.

In the case of `CN=C(NC(C)C)c1ccc(NC(=O)c2ccc(C(=O)Nc3ccc(C(=NC)NC(C)C)cc3)cc2)cc1`, the T/C (dose: 8.0 mg/kg/injection, schedule: Q01DX Z (ip), vehicle: carboxymethylcellulose (CMC)) was 143 and 148 % of control. The survivor count reads like this: (dose: 31.0 mg/kg/injection, schedule: Q01DX Z (ip), vehicle: carboxymethylcellulose (CMC)) 0 of 6; (dose: 62.0 mg/kg/injection, schedule: Q01DX Z (ip), vehicle: carboxymethylcellulose (CMC)) 0 of 6.

Regarding `CNC(=S)N/N=C/C(C)=N/NC(=S)NC`, the survivor count reads like this: (dose: 1.0 micrograms/kg/injection, schedule: Q01DX009 (ip), vehicle: carboxymethylcellulose (CMC)) 0 of 6; (dose: 5.0 micrograms/kg/injection, schedule: Q01DX009 (ip), vehicle: carboxymethylcellulose (CMC)) 0 of 6; (dose: 10.0 micrograms/kg/injection, schedule: Q01DX009 (ip), vehicle: carboxymethylcellulose (CMC)) 0 of 6; (dose: 50.0 micrograms/kg/injection, schedule: Q01DX009 (ip), vehicle: carboxymethylcellulose (CMC)) 0 of 6.

With `CN(CCCl)Cc1ccc(OCc2ccccc2)c(OCc2ccccc2)c1`, the survivor count by setting is: (dose: 100.0 mg/kg/injection, schedule: Q01DX001 (ip), vehicle: Klucel (hydroxypropylcellulose) (HPC)) 5 of 6; (dose: 200.0 mg/kg/injection, schedule: Q01DX001 (ip), vehicle: Klucel (hydroxypropylcellulose) (HPC)) 2 of 6; (dose: 400.0 mg/kg/injection, schedule: Q01DX001 (ip), vehicle: Klucel (hydroxypropylcellulose) (HPC)) 0 of 6.

For the compound `COC12C[C@]34CCCN3CC(O1)c1cc3c(cc1[C@@H]4[C@@H]2O)OCO3`, the survivor count (dose: 100.0 mg/kg/injection, schedule: Q01DX009 (ip), vehicle: saline) is reported as 5 of 6.

As to `O=C(O)CCCCOc1ccccc1`, the survivor count (dose: 300.0 mg/kg/injection, schedule: Q04DX003 (ip), vehicle: saline) was 3 of 6.

Turning to `CCCC(O)(CC)CCC`, the survivor count (dose: 400.0 mg/kg/injection, schedule: Q04DX003 (ip), vehicle: saline with Tween-80) is listed as 3 of 6.

For `CC1=N/C(=C/c2ccccc2Cl)C(=O)O1`, the survivor count under setting [1] is listed as 3 of 6.

For the compound `CC1=CCC2(C)CCC(C(C)C)C2(O)CC1` (stereo not given), the survivor count (dose: 400.0 mg/kg/injection, schedule: Q01DX009 (ip), vehicle: saline) was 6 of 6.

Consider `O=C(O)CSC(=S)SCC(=O)O`, for which, under setting [2], the survivor count is listed as 3 of 6.
